Values from PubChem BioAssay AID1224828 (NIAID, 2016).

Test: 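Regulators linking TLR4 signalling to p65 nuclear translocation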 (primary screen)
System: mouse RAW264.7 G9 macrophage reporter cells (GFP-p65, Tnf promoter-mCherry)
Reagents: siRNA pool against mouse genes, 100 nM
Time to read-out: 2 days siRNA transfection, then 40 min LPS before fixation
Challenge: LPS (Salmonella minnesota R595) at 10 ng/ml
Read-out: 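Microscopy ratio of nuclear to perinuclear-ring GFP-p65 signal, scaled to the plate median; gene score is the average of two replicate robust z-scores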
Reading the numbers: p65 translocation robust z-score: higher = more nuclear NF-kappaB p65 after LPS than the plate median; nuclear/cytoplasmic p65 ratio: higher = more nuclear NF-kappaB p65
Active means: 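Called active when z exceeds 3.3 or falls under -1.56 (median of Tlr4 controls), giving activity score of at least 50; no calls for control wells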
Calls: active = hit (p65 shift raised or lowered); inactive = no clear change
The deposit covers about 17,000 reagents; shown is a random part of them. 762 of all reagents (4.5%) count as active. 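Active calls include both raised and lowered p65 entry, mostly lowered; wells with fewer than 50 cells lack a z-score.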 Raw values are not corrected between plates. Entries without a mark were called inactive.

H2-Q2 → p65 translocation robust z-score = -2.28 (active); nuclear/cytoplasmic p65 ratio, rep 1 = 1.23; nuclear/cytoplasmic p65 ratio, rep 2 = 1.1; low cell count flag = enough cells to score
Ddx4 → p65 translocation robust z-score = 1.17; nuclear/cytoplasmic p65 ratio, rep 1 = 1.83; nuclear/cytoplasmic p65 ratio, rep 2 = 1.63; low cell count flag = enough cells to score
Adam10 → p65 translocation robust z-score = 0.02; nuclear/cytoplasmic p65 ratio, rep 1 = 1.6; nuclear/cytoplasmic p65 ratio, rep 2 = 1.64; low cell count flag = enough cells to score
Dmrt3 → p65 translocation robust z-score = -1.15; nuclear/cytoplasmic p65 ratio, rep 1 = 1.36; nuclear/cytoplasmic p65 ratio, rep 2 = 1.2; low cell count flag = enough cells to score
Prag1 → p65 translocation robust z-score = -1.67 (active); nuclear/cytoplasmic p65 ratio, rep 1 = 1.46; nuclear/cytoplasmic p65 ratio, rep 2 = 1.14; low cell count flag = enough cells to score
Deaf1 → p65 translocation robust z-score = -1.47; nuclear/cytoplasmic p65 ratio, rep 1 = 1.37; nuclear/cytoplasmic p65 ratio, rep 2 = 1.32; low cell count flag = enough cells to score
Cd82 → p65 translocation robust z-score = 0.97; nuclear/cytoplasmic p65 ratio, rep 1 = 1.58; nuclear/cytoplasmic p65 ratio, rep 2 = 1.53; low cell count flag = enough cells to score
Jade2 → p65 translocation robust z-score = -0.69; nuclear/cytoplasmic p65 ratio, rep 1 = 1.34; nuclear/cytoplasmic p65 ratio, rep 2 = 1.17; low cell count flag = enough cells to score
Aass → p65 translocation robust z-score = -0.21; nuclear/cytoplasmic p65 ratio, rep 1 = 1.63; nuclear/cytoplasmic p65 ratio, rep 2 = 1.53; low cell count flag = enough cells to score
Rsl24d1 → p65 translocation robust z-score = 0.76; nuclear/cytoplasmic p65 ratio, rep 1 = 1.54; nuclear/cytoplasmic p65 ratio, rep 2 = 2.14; low cell count flag = enough cells to score
Pcdhb10 → p65 translocation robust z-score = -0.5; nuclear/cytoplasmic p65 ratio, rep 1 = 1.47; nuclear/cytoplasmic p65 ratio, rep 2 = 1.19; low cell count flag = enough cells to score
Nap1l2 → p65 translocation robust z-score = 0.79; nuclear/cytoplasmic p65 ratio, rep 1 = 2.03; nuclear/cytoplasmic p65 ratio, rep 2 = 1.61; low cell count flag = enough cells to score
Wdr12 → p65 translocation robust z-score = 0.08; nuclear/cytoplasmic p65 ratio, rep 1 = 1.6; nuclear/cytoplasmic p65 ratio, rep 2 = 1.54; low cell count flag = enough cells to score
Srebf1 → p65 translocation robust z-score = -0.36; nuclear/cytoplasmic p65 ratio, rep 1 = 1.48; nuclear/cytoplasmic p65 ratio, rep 2 = 1.54; low cell count flag = enough cells to score
Zscan5b → p65 translocation robust z-score = 1.26; nuclear/cytoplasmic p65 ratio, rep 1 = 1.59; nuclear/cytoplasmic p65 ratio, rep 2 = 1.38; low cell count flag = enough cells to score
Adamts9 → p65 translocation robust z-score = 0.47; nuclear/cytoplasmic p65 ratio, rep 1 = 1.61; nuclear/cytoplasmic p65 ratio, rep 2 = 1.48; low cell count flag = enough cells to score
Rps6ka1 → p65 translocation robust z-score = 1.13; nuclear/cytoplasmic p65 ratio, rep 1 = 1.76; nuclear/cytoplasmic p65 ratio, rep 2 = 1.6; low cell count flag = enough cells to score

Reagents listed so far with an active call, once more:
H2-Q2 → p65 translocation robust z-score = -2.28 (active); nuclear/cytoplasmic p65 ratio, rep 1 = 1.23; nuclear/cytoplasmic p65 ratio, rep 2 = 1.1; low cell count flag = enough cells to score
Prag1 → p65 translocation robust z-score = -1.67 (active); nuclear/cytoplasmic p65 ratio, rep 1 = 1.46; nuclear/cytoplasmic p65 ratio, rep 2 = 1.14; low cell count flag = enough cells to score

Next entries follow.
Oat → p65 translocation robust z-score = -1.12; nuclear/cytoplasmic p65 ratio, rep 1 = 1.37; nuclear/cytoplasmic p65 ratio, rep 2 = 1.2; low cell count flag = enough cells to score
Stat3 → p65 translocation robust z-score = -0.02; nuclear/cytoplasmic p65 ratio, rep 1 = 1.55; nuclear/cytoplasmic p65 ratio, rep 2 = 1.55; low cell count flag = enough cells to score
Pgf → p65 translocation robust z-score = 2.42; nuclear/cytoplasmic p65 ratio, rep 1 = 1.91; nuclear/cytoplasmic p65 ratio, rep 2 = 1.65; low cell count flag = enough cells to score
Dapk3 → p65 translocation robust z-score = -0.29; nuclear/cytoplasmic p65 ratio, rep 1 = 1.92; nuclear/cytoplasmic p65 ratio, rep 2 = 1.35; low cell count flag = enough cells to score
Srsf5 → p65 translocation robust z-score = -0.09; nuclear/cytoplasmic p65 ratio, rep 1 = 1.59; nuclear/cytoplasmic p65 ratio, rep 2 = 1.25; low cell count flag = enough cells to score
Slc37a3 → nuclear/cytoplasmic p65 ratio, rep 1 = 1.98; nuclear/cytoplasmic p65 ratio, rep 2 = 1.16; low cell count flag = fewer than 50 cells per well; well left out of scoring
Rnf32 → nuclear/cytoplasmic p65 ratio, rep 1 = 1.07; nuclear/cytoplasmic p65 ratio, rep 2 = 0; low cell count flag = fewer than 50 cells per well; well left out of scoring
Mettl25b → p65 translocation robust z-score = -1.34; nuclear/cytoplasmic p65 ratio, rep 1 = 1.42; nuclear/cytoplasmic p65 ratio, rep 2 = 1.58; low cell count flag = enough cells to score
Slc71a2 → p65 translocation robust z-score = 0.13; nuclear/cytoplasmic p65 ratio, rep 1 = 1.37; nuclear/cytoplasmic p65 ratio, rep 2 = 1.49; low cell count flag = enough cells to score
Marcksl1 → nuclear/cytoplasmic p65 ratio, rep 1 = 1.21; nuclear/cytoplasmic p65 ratio, rep 2 = 0.972; low cell count flag = fewer than 50 cells per well; well left out of scoring
